# Assay results taken from PubChem BioAssay AID602313 (National Center for Advancing Translational Sciences (NCATS), 2012).
# Screen size: about 390,000 compounds; about 760 (0.19%) were called active. Inconclusive results, whose numbers are uncertain, are shown with a selection of clear calls. The call rests on the fitted dose curve; in most records, active means well fitted inhibition curve with a large enough effect; inconclusive means small, poorly fitted or top-dose-only effect; inactive means flat fitted curve, though single readings scatter. A potency beside an inconclusive call is a rough fit, not a confirmed value.
# Test: qHTS for Inhibitors of Vif-A3F Interactions: qHTS; further: nearly all actives have a fitted effect of over 65% in size
# Conditions: HeLa A3F-eYFP + Vif (tagged APOBEC3F with the HIV-1 protein that degrades it), YFP fluorescence increase; series mostly up to 46.1 µM
# In short: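 HeLa cells stably expressing A3F-eYFP plus Vif, plated and incubated overnight at 37 deg C, then exposed to compounds overnight at 37 deg C. Blocked degradation read as raised yellow fluorescence (Ex 488/Em 500-530).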
# Potency means the concentration at half of the fitted maximal effect.
row,Structure (SMILES),Potency
1,CCc1ccc(S(=O)(=O)NC(=S)Nc2ccccc2)cc1,inactive
2,Fc1ccc(C2NC(=S)NC3=C2N2CCC3CC2)cc1 (stereo not drawn),inactive
3,CC1CCN(CCCCOc2cccc(Br)c2)CC1,"inconclusive: 11.2 µM [inhibitor, partial curve, poor fit]"
4,Cc1ccccc1NC(=O)c1sc2nc3c(c(-c4ccco4)c2c1N)CCCC3,"inconclusive: 35.5 µM [inhibitor, single point]"
5,CC(C)CCC(=O)N1CCC(N2CCC(C(=O)NCc3ccccn3)CC2)CC1,"inconclusive: 3.55 µM [inhibitor, partial curve, poor fit]"
6,Clc1ccc2oc3c(Cl)ncnc3c2c1,"inconclusive: 10 µM [inhibitor, partial curve, poor fit]"
7,COc1ccc(C(C(=O)NC2CCCC2)N(CCCO)C(=O)c2snc(C(N)=O)c2N)cc1 (stereo not drawn),"inconclusive: 12.6 µM [inhibitor, single point]"
8,C/C=C/c1ccc(OCc2cc(=O)n3cc(C)ccc3n2)c(OC)c1,"inconclusive: 35.5 µM [inhibitor, single point]"
9,Cc1cccc(OCC(=O)NCC(=O)N/N=C/c2cc(Br)cc(Br)c2O)c1,"inconclusive: 35.5 µM [inhibitor, single point]"
10,CC(=O)c1ccc(NC(=O)COC(=O)c2nc(Cl)ccc2Cl)cc1,"inconclusive: 20 µM [inhibitor, partial curve, poor fit]"
11,CC(C)Oc1ccc(C(=O)NC2=NCCS2)cc1,inactive
12,COc1ccc(NC(=O)/C(C#N)=C\c2ccc(N3CCOCC3)o2)cc1,"inconclusive: 3.16 µM [inhibitor, partial curve, poor fit]"
13,CCC(CC)c1nn2c(=O)cc(COc3ccc(NC(=O)c4ccccc4C)cc3)nc2s1,"inconclusive: 15.8 µM [inhibitor, partial curve, poor fit]"
14,COc1cc(NS(=O)(=O)c2ccc(NC(=O)c3cccc(F)c3)cc2)nc(OC)n1,inactive
15,O=C(Cc1c(C(=O)O)[nH]c2ccccc12)NC1CCCC1,"inconclusive: 6.31 µM [inhibitor, single point]"
16,COc1ccc(-c2nc(CSc3nncn4c3cc3oc(C)cc34)c(C)o2)cc1,"inconclusive: 6.31 µM [inhibitor, single point]"
17,CCOC(=O)c1cc(-c2ccccc2)sc1NC(=S)Nc1cc(C)ccn1,active: 8.91 µM
18,Nc1c(C(=O)c2ccccc2)sc2nsc(SCCN3CCOCC3)c12,active: 3.55 µM
19,Fc1ccc(NC(=S)Nc2cccc3ccccc23)cc1,"inconclusive: 25.1 µM [inhibitor, single point]"
20,CCC/C(C#Cc1ccc(N(C)C)cc1)=C1/c2ccccc2C(=O)N1c1ccccc1,"inconclusive: 15.8 µM [inhibitor, partial curve, poor fit]"
21,Cn1nnnc1Sc1ncnc2scc(-c3ccsc3)c12,inactive
22,O=C(NC(NC(=S)Nc1cccc(Cl)c1)C(Cl)(Cl)Cl)OCc1ccccc1 (stereo not drawn),inactive
23,Nc1c(C(=O)Nc2ccccc2)sc2nc3c(cc12)CN(Cc1ccccc1)CC3,"inconclusive: 17.8 µM [inhibitor, partial curve, poor fit]"

# Another view of 4 compounds above.
row | Structure (SMILES) | Potency
14 | COc1cc(NS(=O)(=O)c2ccc(NC(=O)c3cccc(F)c3)cc2)nc(OC)n1 | inactive
15 | O=C(Cc1c(C(=O)O)[nH]c2ccccc12)NC1CCCC1 | inconclusive: 6.31 µM [inhibitor, single point]
16 | COc1ccc(-c2nc(CSc3nncn4c3cc3oc(C)cc34)c(C)o2)cc1 | inconclusive: 6.31 µM [inhibitor, single point]
17 | CCOC(=O)c1cc(-c2ccccc2)sc1NC(=S)Nc1cc(C)ccn1 | active: 8.91 µM

# Carrying on.

row,Structure (SMILES),Potency
1,COc1ccc(N2C(=O)C(Cl)=C(N(CCO)Cc3ccccc3)C2=O)cc1,inactive
2,COc1ccc(Nc2nnc(SCC(=O)NC(=O)Nc3ccc4c(c3)OCCO4)s2)cc1,"inconclusive: 31.6 µM [inhibitor, single point]"
3,CCCN(CC(=O)Nc1cc(Cl)ccc1Cl)C(=O)/C=C/c1cc(OC)ccc1OC,inactive
4,O=C(CCN1C(=O)/C(=C\c2ccccc2Cl)SC1=S)Nc1cccnc1,inactive
5,CCOc1ccc(CCNC(=O)c2ccc(-n3c(C)cc4c3CCC(C)C4)cc2)cc1OCC (stereo not drawn),"inconclusive: 17.8 µM [inhibitor, single point]"
6,CCn1c(SCC(=O)Nc2cccc(C)c2)nc2nc3c(cc2c1=O)COC(C)(C)C3,inactive
7,O=C(NCCc1c[nH]c2ccccc12)C1CCN(S(=O)(=O)c2ccccc2F)CC1,"inconclusive: 20 µM [inhibitor, partial curve, poor fit]"
8,CC1C/C(=C/c2cccn2C)C(=O)/C(=C/c2cccn2C)C1 (stereo not drawn),"inconclusive: 4.47 µM [inhibitor, partial curve, poor fit]"
9,O=[N+]([O-])c1cccc(-c2ccc(SCc3cccnc3)nn2)c1,inactive
10,COc1cccc(/C=N/NC(=O)c2cc3c(OC)cccc3[nH]2)c1OC,inactive
11,CCCOc1nc2c(c(=O)n(C)c(=O)n2C)n1C,"inconclusive: 2.51 µM [inhibitor, partial curve, poor fit]"
12,N#C/C(=C\C=C\c1ccccc1)C(=O)NCc1cccnc1,inactive
13,CC(=O)Oc1ccc(C23c4ccccc4C2(OC(C)=O)c2cc(OC(C)=O)ccc23)cc1 (stereo not drawn),"inconclusive: 35.5 µM [inhibitor, single point]"
14,N#CC(C#N)=C1C=C2C=C(N3CCCCC3)CCC2CC1 (stereo not drawn),"inconclusive: 5.01 µM [inhibitor, single point]"
15,CC(NC(=S)Nc1ccc(Cl)cc1Cl)C(c1cccs1)N1CCCC1 (stereo not drawn),"inconclusive: 35.5 µM [inhibitor, single point]"
16,CCCCCCNC(=O)O[C@@]12CN(S(=O)(=O)c3ccc(C)cc3)C[C@]1(O)Cn1c(=O)n(CCCCCC)c(=O)n1C2,"inconclusive: 20 µM [inhibitor, single point]"
17,O=C(C#Cc1ccccc1)c1ccc([N+](=O)[O-])cc1,inactive
18,CC(=O)c1sc2nc(CSc3nnnn3-c3ccccc3)[nH]c(=O)c2c1C,"inconclusive: 35.5 µM [inhibitor, partial curve, poor fit]"
19,COc1cc(OC)c(/C=C2\SC(=O)N(CC(=O)Nc3ccccc3F)C2=O)c(OC)c1,"inconclusive: 3.16 µM [inhibitor, single point]"
20,CC(C)CCN(C(=O)CCSc1ccc(F)cc1)c1c(N)n(Cc2ccccc2)c(=O)[nH]c1=O,inactive
21,COc1ccc2c(c1)c1nc3ccccc3nc1n2CCCN1C(=O)c2ccccc2C1=O,"inconclusive: 20 µM [inhibitor, partial curve, poor fit]"
22,Cc1ncc2c(c1OC(=O)c1ccccc1)COC(C)(C)OC2,inactive
23,COc1ccc(NC(=O)CN2CCc3ccccc3C2)cc1OC,"inconclusive: 22.4 µM [inhibitor, single point]"

# Compounds listed so far that contain a nitro group on carbon:
row,Structure (SMILES),Potency
9,O=[N+]([O-])c1cccc(-c2ccc(SCc3cccnc3)nn2)c1,inactive
17,O=C(C#Cc1ccccc1)c1ccc([N+](=O)[O-])cc1,inactive

# The list goes on:

row,Structure (SMILES),Potency
1,COc1ccc(CNC(=O)C2CCN(S(=O)(=O)N3CCC4(CC3)OCCO4)CC2)c(OC)c1,"inconclusive: 6.31 µM [inhibitor, single point]"
2,CN(C)c1ccc(/C=C(\C#N)c2nc(-c3ccc(Cl)c(Cl)c3)cs2)cc1,"inconclusive: 5.62 µM [inhibitor, single point]"
3,CC(=O)NC(c1ccccc1)c1cc(Cl)c2cccnc2c1O (stereo not drawn),"inconclusive: 4.47 µM [inhibitor, full curve, poor fit]"
4,CC1=CC2=NC(=O)/C(=C\c3cn(C)c4ccccc34)C(=N)N2O1,"inconclusive: 12.6 µM [inhibitor, partial curve, poor fit]"
5,O=C(COC(=O)/C=C/C(=O)N1CCN(c2ccccc2)CC1)NCc1ccc(F)cc1,"inconclusive: 6.31 µM [inhibitor, partial curve, poor fit]"
6,COc1ccc(Nc2nc3ccc(C)cc3nc2-n2nc(C)cc2C)cc1Cl,inactive
7,O=C(Nc1cccc(-n2cccn2)c1)C1CCCN(Cc2cc3ccccc3[nH]2)C1 (stereo not drawn),inactive
8,CCOC(=O)C1CCCN(C(=O)/C=C/c2cc(OC)c(OC)c(OC)c2)C1 (stereo not drawn),"inconclusive: 2.82 µM [inhibitor, full curve]"
9,CC(=O)N1c2ccc(S(=O)(=O)NCCC(=O)Nc3ccc(OC(F)(F)F)cc3)cc2CC1C (stereo not drawn),inactive
10,Cc1cccc(-n2cnc3cc(C(=O)NCc4ccccc4Cl)ccc32)c1,inactive
11,Cc1nnc(NC(=O)c2ccc(N3CCCC3=O)cc2)s1,inactive
12,CC(C)N=c1scc(-c2cccs2)n1/N=C/c1ccc(O)c(O)c1O,"inconclusive: 15.8 µM [inhibitor, partial curve, poor fit]"
13,NC(=O)C1CCCN(CC(=O)N2CCN(c3ccccc3)CC2)C1 (stereo not drawn),"inconclusive: 20 µM [inhibitor, single point]"
14,COc1cc(CN(C(=O)c2ccc(OC(C)C)cc2)c2ccccn2)cc(OC)c1OC,inactive
15,Cc1ccccc1OCC(=O)Nc1nc(C)c(C(=O)N(C)C)s1,"inconclusive: 20 µM [inhibitor, single point]"
16,COc1ccc(Cl)cc1C(=O)OCC(=O)Nc1sccc1C(N)=O,"inconclusive: 25.1 µM [inhibitor, single point]"
17,Cn1c(-c2c(N)n(CCCc3ccccc3)c3nc4ccccc4nc23)nc2ccccc21,"inconclusive: 35.5 µM [inhibitor, single point]"
18,O=C1C(Cl)=C(N2CCC(C(=O)O)CC2)C(=O)c2ccccc21,"inconclusive: 35.5 µM [inhibitor, single point]"
19,Cc1cc(N2CCCC2)ccc1NC(=O)COc1ccccc1,"inconclusive: 35.5 µM [inhibitor, single point]"
20,CS(=O)(=O)N1N=C(c2ccc(Br)cc2)CC1c1ccc2c(c1)OCO2 (stereo not drawn),"inconclusive: 20 µM [inhibitor, single point]"
21,COC(=O)c1c(C(=O)OC)c(-c2ccc(Cl)cc2)n2c1CS(=O)(=O)C2,inactive
22,CCOC(=O)C1(CCOc2ccccc2)CCN(Cc2cnc(C)s2)CC1,"inconclusive: 6.31 µM [inhibitor, single point]"
